According to paper PMC10556143:
Results are given in words; binding and its absence hold for the method and conditions named. In cells and extracts the contact can be indirect. Some binding calls cover weakened binding; strength is not graded here.

The chains behind the UniProt entries cited, without tags or fusion partners. Where a name states a change or a piece, a line headed by the entry shows the natural chain unless it says otherwise. A line that says so, or that is headed by a name, gives the form on record, which may keep a tag or linker.
UniProt P11413: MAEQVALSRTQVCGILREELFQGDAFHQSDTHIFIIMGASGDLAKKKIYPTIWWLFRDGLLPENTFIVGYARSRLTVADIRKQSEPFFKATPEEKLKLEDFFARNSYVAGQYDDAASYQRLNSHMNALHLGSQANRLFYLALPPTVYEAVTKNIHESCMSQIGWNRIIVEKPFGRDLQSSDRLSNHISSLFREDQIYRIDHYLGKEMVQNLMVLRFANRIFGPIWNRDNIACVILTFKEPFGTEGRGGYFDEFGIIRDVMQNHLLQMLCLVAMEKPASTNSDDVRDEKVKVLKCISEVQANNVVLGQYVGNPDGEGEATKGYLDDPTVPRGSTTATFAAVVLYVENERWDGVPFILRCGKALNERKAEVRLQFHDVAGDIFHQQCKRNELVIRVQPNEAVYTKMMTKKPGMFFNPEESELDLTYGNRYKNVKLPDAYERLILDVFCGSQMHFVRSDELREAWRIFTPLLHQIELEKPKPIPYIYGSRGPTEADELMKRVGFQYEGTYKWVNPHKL
Pseudo-wild type G6PD (AcK414), C-terminal 6×His tag (P11413, form named): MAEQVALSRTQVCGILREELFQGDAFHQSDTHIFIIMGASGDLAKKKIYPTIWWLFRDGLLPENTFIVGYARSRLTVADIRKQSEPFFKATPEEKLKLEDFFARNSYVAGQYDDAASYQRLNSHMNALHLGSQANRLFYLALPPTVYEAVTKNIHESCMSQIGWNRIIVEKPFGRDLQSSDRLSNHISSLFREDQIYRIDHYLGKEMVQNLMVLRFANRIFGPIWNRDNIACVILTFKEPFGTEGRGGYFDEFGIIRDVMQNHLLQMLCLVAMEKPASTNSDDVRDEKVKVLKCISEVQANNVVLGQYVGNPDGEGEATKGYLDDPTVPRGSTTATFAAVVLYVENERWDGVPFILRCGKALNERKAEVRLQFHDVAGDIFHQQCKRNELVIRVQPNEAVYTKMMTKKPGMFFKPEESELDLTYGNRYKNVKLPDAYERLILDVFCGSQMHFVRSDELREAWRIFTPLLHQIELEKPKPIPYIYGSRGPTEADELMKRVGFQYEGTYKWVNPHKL
UniProt P06241: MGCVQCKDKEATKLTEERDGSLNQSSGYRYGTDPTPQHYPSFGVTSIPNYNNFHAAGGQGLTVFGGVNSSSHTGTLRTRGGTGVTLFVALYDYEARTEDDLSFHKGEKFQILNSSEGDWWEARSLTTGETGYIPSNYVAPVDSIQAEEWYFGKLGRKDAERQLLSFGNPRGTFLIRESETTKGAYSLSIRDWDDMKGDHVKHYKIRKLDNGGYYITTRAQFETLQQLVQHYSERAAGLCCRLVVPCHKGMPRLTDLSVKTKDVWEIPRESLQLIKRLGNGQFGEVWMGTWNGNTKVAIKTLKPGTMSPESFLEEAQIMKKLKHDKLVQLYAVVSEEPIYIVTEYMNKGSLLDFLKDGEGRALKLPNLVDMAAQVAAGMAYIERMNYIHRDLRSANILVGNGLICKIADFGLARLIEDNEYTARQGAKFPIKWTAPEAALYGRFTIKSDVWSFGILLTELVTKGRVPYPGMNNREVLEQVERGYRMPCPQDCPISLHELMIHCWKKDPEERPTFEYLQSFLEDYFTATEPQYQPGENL

How the values were obtained:
[1] = target: K403-acetylated G6PD, C-terminal 6×His tag (human) (UniProt P11413); assay: pull-down; 6×His-tagged G6PD co-expressed with Fyn in E. coli; pull-down of the His tag (Supplementary Fig. 10c)
[2] = target: Pseudo-wild type G6PD (AcK414), C-terminal 6×His tag (human) (UniProt P11413); assay: as above

For “Fyn (from UniProt P06241 1-537) (enzyme)”, the binding [1] was “binds” and the binding [2] was “binds”.
